Assay results published in PubChem BioAssay AID504834 (National Center for Advancing Translational Sciences (NCATS), 2011).
Out of some 320,000 compounds screened, about 22,000 (6.9%) were called active. The shares of active, inactive and inconclusive entries below differ from those in the screen. Calls follow the shape of the dose curve; as a rule, active = well fitted inhibition curve with a large enough effect; inconclusive = small, poorly fitted or top-dose-only effect, or another doubt; inactive = no such curve, though single readings can be large or run the other way. A potency beside an inconclusive call is a rough fit, not a confirmed value.

Test: Primary qHTS for delayed death inhibitors of the malarial parasite plastid, 96 hour incubation
Details: P. falciparum luciferase reporter growth; series mostly up to 28.7 µM; activity change, negative = inhibition: at the top concentration
Outline: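 P. falciparum expressing integrated firefly luciferase grown in erythrocytes (2% hematocrit, 0.05% parasitemia final) with compounds for 96 hours at 37 C, 5% CO2. Growth inhibition read as loss of luminescence after adding luciferase detection reagent.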
% is scaled to controls: 0 for no effect and ±100 for the full control effect; potency is read from the fitted curve at half-maximal effect.

Compound	Potency	activity change, negative = inhibition
CCc1ccc(CNC(=O)c2cc3c(C)nc4ccccc4c3o2)cc1	inconclusive: 18.5 µM [inhibitor, single point]	–
N=c1sccn1CC(=O)Nc1cc(Cl)ccc1[N+](=O)[O-]	inconclusive: 14.7 µM [inhibitor, single point]	–
Cc1nc2ncnn2c(C)c1CCC(=O)N1CCc2ccccc21	inconclusive: 11.7 µM [inhibitor, partial curve, poor fit]	–
CN1C(=O)NC(c2ccccc2Cl)C2=C1CC(C)(C)CC2=O (stereo not given)	–	inactive: -4.57%
COc1ccccc1Nc1nc(N)nc(CSc2ncccn2)n1	inconclusive: 8.28 µM [inhibitor, partial curve, poor fit]	–
O=C(CCN1C(=O)c2ccccc2C1=O)C1=NN[C@@H]2C(=O)N(c3cccc(Cl)c3)C(=O)[C@H]12	–	inactive: -5.5%
O=C(CCS(=O)(=O)c1ccccc1)Nc1ccccc1N1CCOCC1	inconclusive: 10.4 µM [inhibitor, single point]	–
COc1ccc(/C=C2/SC(=S)N(CCCC(=O)Nc3ccccc3C(=O)O)C2=O)cc1	inconclusive: 0.928 µM [inhibitor, full curve, poor fit]	–
CCC(CC)NC(=O)Nc1ccc(F)cc1F	inconclusive: 18.5 µM [inhibitor, single point]	–
O=C(CC(=O)N/N=C/c1ccccc1O)NCc1cccnc1	inconclusive: 10.4 µM [inhibitor, partial curve, poor fit]	–
CCOC(=O)c1ccc(NS(=O)(=O)c2cc(-c3nnnn3CC)ccc2OC)cc1	inconclusive: 18.5 µM [inhibitor, single point]	–
COc1ccc(C2CC(c3ccccc3)=NN2C(=O)COC(=O)CNC(=O)c2ccccc2)cc1 (stereo not given)	–	inactive: 32%
Cc1nn2c(NCCOCCO)c3c(nc2c1-c1ccccc1)CCC3	inconclusive: 13.1 µM [inhibitor, partial curve, poor fit]	–
O=C(NCCOc1ccccc1F)C1CCC(=O)N(CCc2cccc(F)c2)C1 (stereo not given)	active: 14.7 µM	–
CCOC(=O)c1sc2nc(C)c([N+](=O)[O-])c(COC)c2c1N	–	inactive: -8.77%
Cn1c(=O)c2c(nc(OCc3cccnc3)n2Cc2ccccc2)n(C)c1=O	inconclusive: 4.15 µM [inhibitor, partial curve, poor fit]	–
COc1ccc(CCNC(=O)C2CCN(C(=O)c3ccc(OC)c(OC)c3)CC2)cc1	inconclusive: 18.5 µM [inhibitor, single point]	–
COc1ccc(C2Nc3ccccc3C(=O)N2c2ccc(C)cc2)cc1Cn1nc(C)c([N+](=O)[O-])c1C (stereo not given)	inconclusive: 18.5 µM [inhibitor, single point]	–
CN(C)S(=O)(=O)c1ccc(Cl)c(NC(=O)COC(=O)c2ccc3c(c2)NC(=O)CS3)c1	inconclusive: 0.104 µM [inhibitor, full curve, poor fit]	–
Cc1ccc(S(=O)(=O)N2CCN(c3cccc(C)c3)CC2)cc1	inconclusive: 16.5 µM [inhibitor, partial curve, poor fit]	–
COc1ccc(CN(C)CC(=O)NC(=O)NC2CCCCC2)cc1	–	inactive: -24.7%
COc1cc(C(=O)OC(C)C(=O)Nc2ccc3c(c2)OCO3)ccc1OCc1c(C)noc1C (stereo not given)	inconclusive: 13.1 µM [inhibitor, single point]	–

An excerpt from above in order of length of the SMILES, descending:
Compound	Potency	activity change, negative = inhibition
COc1ccc(C2CC(c3ccccc3)=NN2C(=O)COC(=O)CNC(=O)c2ccccc2)cc1 (stereo not given)	–	inactive: 32%
COc1ccc(/C=C2/SC(=S)N(CCCC(=O)Nc3ccccc3C(=O)O)C2=O)cc1	inconclusive: 0.928 µM [inhibitor, full curve, poor fit]	–
CCOC(=O)c1sc2nc(C)c([N+](=O)[O-])c(COC)c2c1N	–	inactive: -8.77%
Cc1ccc(S(=O)(=O)N2CCN(c3cccc(C)c3)CC2)cc1	inconclusive: 16.5 µM [inhibitor, partial curve, poor fit]	–
N=c1sccn1CC(=O)Nc1cc(Cl)ccc1[N+](=O)[O-]	inconclusive: 14.7 µM [inhibitor, single point]	–

Following part:

Compound	Potency	activity change, negative = inhibition
COc1ccc(CNC(=O)c2cc(-c3cc(C)ccc3O)n[nH]2)cc1	inconclusive: 18.5 µM [inhibitor, single point]	–
Cc1cc(NS(=O)(=O)c2ccc(NC(=O)COc3ccc(Cl)c(C)c3)cc2)no1	–	inactive: -2.94%
COc1ccccc1N1CCN(Cc2cnc(-c3ccccc3)[nH]2)CC1	inconclusive: 10.4 µM [inhibitor, partial curve, poor fit]	–
OC1CCCCC1Sc1nc2ccccc2s1 (stereo not given)	inconclusive: 11.7 µM [inhibitor, partial curve, poor fit]	–
COCc1c(C#N)c(NCCc2ccc(F)cc2)nc(C)c1[N+](=O)[O-]	inconclusive: 6.57 µM [inhibitor, partial curve]	–
Cc1ccc(S(=O)(=O)NC(=O)Nc2ccc(F)cc2)cc1	inconclusive: 8.28 µM [inhibitor, partial curve, poor fit]	–
C=CCOCCN(C)C1=NS(=O)(=O)c2cc([N+](=O)[O-])ccc21	–	inactive: -26.9%
COc1ccc(S(=O)(=O)NCc2ccco2)cc1N(C)S(=O)(=O)c1ccccc1	inconclusive: 18.5 µM [inhibitor, single point]	–
O=C1CC(N2CCSCC2)C(=O)N1c1ccc(Br)cc1 (stereo not given)	–	inactive: 35.3%
CCOC(=O)c1c(C)oc2cc(Cl)c(O)c(CN(C)C)c12	inconclusive: 7.38 µM [inhibitor, partial curve, poor fit]	–
CCn1c(SCC(=O)NCc2ccccc2)nc2nc3c(cc2c1=O)CCCC3	inconclusive: 3.7 µM [inhibitor, single point]	–
CN1CCN(C(=O)/C=C/c2ccc([N+](=O)[O-])o2)CC1	inconclusive: 7.38 µM [inhibitor, partial curve]	–
Cc1ccc2sc(N(CCCN(C)C)C(=O)c3ccc(S(=O)(=O)N4CCc5ccccc5C4)cc3)nc2c1C	inconclusive: 18.5 µM [inhibitor, single point]	–
COc1ccccc1C(=O)COC(=O)Cn1[nH]c(=O)c2ccccc2c1=O	–	inactive: -2.13%
O=C(NCCCn1ccnc1)/C(=C\c1ccc(Br)cc1)NC(=O)c1ccccc1	inconclusive: 18.5 µM [inhibitor, single point]	–
O=C(Nc1cccc(NC(=O)c2ccccc2Cl)c1)c1ccc([N+](=O)[O-])o1	–	inactive: 4.93%
O=[N+]([O-])c1ccc(CN2CCN(c3ccccc3Cl)CC2)o1	–	inactive: -2.85%
Cc1ccnc(NC(=O)CSc2ccc3c(c2)OCCO3)c1	–	inactive: 110%
COc1ccc(NC(=O)CN2CCN(c3ccccn3)CC2)cc1Cl	inconclusive: 0.928 µM [inhibitor, full curve]	–
S=c1nc2ccccc2c2nc(-c3ccccc3Cl)[nH]n12	active: 1.65 µM	–
CCN(CC(=O)N(CC(C)C)c1c(N)n(CC(C)C)c(=O)[nH]c1=O)Cc1nc2ccccc2c(=O)[nH]1	inconclusive: 13.1 µM [inhibitor, single point]	–
Cc1ccc(N/N=C/c2cccnc2)cc1	inconclusive: 18.5 µM [inhibitor, single point]	–

Compound	Potency	activity change, negative = inhibition
CCN(Cc1nc2ccccc2c(=O)[nH]1)C(=O)c1cccc(NC(=O)c2cccs2)c1	inconclusive: 11.7 µM [inhibitor, partial curve]	–
COC(=O)/C(C#N)=C/c1ccc(OC(=O)c2ccccn2)cc1	–	inactive: 53.5%
CC(Oc1cccc(Cl)c1)C(=O)Nc1ccc([N+](=O)[O-])cn1 (stereo not given)	inconclusive: 0.0029 µM [inhibitor, full curve, poor fit]	–
Clc1ccc(CSc2nnc(Cn3cnc4ccccc43)o2)cc1	inconclusive: 0.0037 µM [inhibitor, full curve, poor fit]	–
COc1cc(C(=O)N2CCC(n3c(C)nc4cc(F)ccc43)CC2)cc(OC)c1OC	–	inactive: -2.17%
CCOC(=O)CN1C(=O)S/C(=C/c2cccc([N+](=O)[O-])c2O)C1=O	inconclusive: 3.29 µM [inhibitor, single point]	–
O=C(CSc1nnc(CNC(=O)c2ccccc2)o1)NCc1ccc(F)cc1	inconclusive: 18.5 µM [inhibitor, single point]	–
C#CCOCCOCCOCCNc1nc(N2CCN(C(=O)CCCCCCCCCCNC(=O)[C@H](CCCN=C(N)N)n3cc(C[C@@H](C)CC)nn3)CC2)nc(N2CCN(C(=O)CCCCCCCCCCNC(=O)[C@@H]([C@H](C)CC)n3cc(CCCCCN)nn3)CC2)n1	active: 8.28 µM	–
CCOC(=O)c1ccc(COC(=O)CNS(=O)(=O)c2ccccc2)cc1	inconclusive: 18.5 µM [inhibitor, single point]	–
CN(C)c1cc(-c2ccc(F)cc2)oc(=O)c1Cl	inconclusive: 11.7 µM [inhibitor, single point]	–
O=S(=O)(N/N=C/c1ccc(N2CCOCC2)cc1)c1ccccc1	inconclusive: 0.329 µM [inhibitor, full curve, poor fit]	–
CCCNC(=O)C1CCCN(S(=O)(=O)c2ccc3c(c2)CC(C)N3C(=O)C2CC2)C1 (stereo not given)	inconclusive: 2.62 µM [inhibitor, full curve]	–
O=C1CC2(CCN(S(=O)(=O)c3ccccc3F)CC2)Oc2ccccc21	inconclusive: 13.1 µM [inhibitor, single point]	–
Cc1ccc(NC(=O)CN2CCC(C(=O)c3ccc(F)cc3)CC2)cc1	inconclusive: 10.4 µM [inhibitor, single point]	–
CCOc1ccc(NC(=O)c2cccc(OC(=S)N3CCOCC3)c2)cc1	–	inactive: 1.98%
COc1ccccc1NC(=O)C(=O)NCC(c1ccco1)N1CCc2ccccc21 (stereo not given)	inconclusive: 11.7 µM [inhibitor, single point]	–
O=C(NNC(=O)c1cccs1)c1cccnc1	inconclusive: 0.037 µM [inhibitor, full curve, poor fit]	–
CCCC(=O)NCc1nc2ccccc2n1CC(=O)c1ccccc1	inconclusive: 18.5 µM [inhibitor, single point]	–
O=[N+]([O-])c1ccc(Cl)c(/C=N/NC(=S)Nc2ccccc2)c1	inconclusive: 6.57 µM [inhibitor, partial curve, poor fit]	–
O=C(CN1C(=O)NC2(CCCC2)C1=O)Nc1cccc(Cl)c1Cl	–	inactive: 43.6%
CN(CCOc1ccc(Cl)cc1)C(=O)CN1C(=O)NC2(CCCC2)C1=O	–	inactive: -4.89%
